Results published in publication PMC11696352.
These are yes or no findings as the source states them, for the method shown. In cells and extracts the contact can be indirect. Binding can be weak; no strength is given.

Biological target: NKRF truncation mutant M1 (C-terminal fragment)
Assay: co-IP; HA-tagged NKRF WT or truncated mutants (M1-M5) overexpressed in 293T or HCT116 cells (control or GCLM knock-down, oxaliplatin 40 μM, 24 h); anti-HA immunoprecipitation

binding: binds
B1: GCLM (glutamate-cysteine ligase modifier subunit), endogenous (protein, UniProt P48507 1-274)
chain: MGTDSRAAKALLARARTLHLQTGNLLNWGRLRKKCPSTHSEELHDCIQKTLNEWSSQINPDLVREFPDVLECTVSHAVEKINPDEREEMKVSAKLFIVESNSSSSTRSAVDMACSVLGVAQLDSVIIASPPIEDGVNLSLEHLQPYWEELENLVQSKKIVAIGTSDLDKTQLEQLYQWAQVKPNSNQVNLASCCVMPPDLTAFAKQFDIQLLTHNDPKELLSEASFQEALQESIPDIQAHEWVPLWLLRYSVIVKSRGIIKSKGYILQAKRRGS
